Assay results from patent US20240401063, “Aptamer for DKK1 and Use Thereof” (APTACURE THERAPEUTICS LIMITED, published 2024).
For some of these results: The comparison behind a weaker result is the experiment's own reference, which may not be listed here. For some of these results: Tags and fusion partners may be left off the protein sequences shown. For some of these results: At least one result comes from cells or an extract, where the contact may be indirect. For some of these results: A negative result means that nothing was seen under these conditions.

Experiments:
[1] = molecular target: DKK1 expressed in Wnt reporter cells (UniProt O94907); test: activity in cells; settings: relieves DKK1 inhibition of Wnt at 1 uM; IC50 fit failed, weaker; protein in cells; protein details: DKK1 construct co-transfected in HEK293T; single-stranded DNA
[2] = molecular target: T1, DKK1-deltaC (pCS2-DKK1-deltaC-His-flag, S3) (Homo sapiens) (UniProt O94907); test: pull-down; settings: almost no binding; C domain (178-266) implicated; protein in a lysate after overexpression; label: FAM; single-stranded DNA; variant of Aptdkk-5
T1 sequence: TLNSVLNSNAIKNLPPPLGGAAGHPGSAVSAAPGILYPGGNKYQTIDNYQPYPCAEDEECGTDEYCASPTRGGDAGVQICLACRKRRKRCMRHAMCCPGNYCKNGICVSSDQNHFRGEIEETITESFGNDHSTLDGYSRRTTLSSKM

[3] = molecular target: DKK1 full-length (pCS2-DKK1-His-flag, S4) (Homo sapiens) (UniProt O94907); test: pull-down; settings: 250 nM FAM-aptamer on DKK1-NTA beads, fluorescence microscopy, room temperature; protein in a lysate after overexpression; label: FAM; single-stranded DNA; variant of Aptdkk-5
[4] = molecular target: T2, DKK1-deltaL2&C (pCS2-DKK1-deltaL2&C-His-flag, S2) (Homo sapiens) (UniProt O94907); test: pull-down; settings: almost no binding; C domain (178-266) implicated; protein in a lysate after overexpression; label: FAM; single-stranded DNA; variant of Aptdkk-5
T2 sequence: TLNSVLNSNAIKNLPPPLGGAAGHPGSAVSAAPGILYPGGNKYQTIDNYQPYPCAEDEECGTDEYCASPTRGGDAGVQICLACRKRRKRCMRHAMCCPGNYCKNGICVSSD

[5] = molecular target: T3, DKK1 (Dickkopf-1), full-length (Homo sapiens) (UniProt O94907); test: ELONA; settings: 1 uM; especially lower absorbance; purified recombinant protein; protein details: His6; label: biotin; single-stranded DNA; variant of Apt5-1-38 (Aptdkk5s)
T3 sequence (limits assumed): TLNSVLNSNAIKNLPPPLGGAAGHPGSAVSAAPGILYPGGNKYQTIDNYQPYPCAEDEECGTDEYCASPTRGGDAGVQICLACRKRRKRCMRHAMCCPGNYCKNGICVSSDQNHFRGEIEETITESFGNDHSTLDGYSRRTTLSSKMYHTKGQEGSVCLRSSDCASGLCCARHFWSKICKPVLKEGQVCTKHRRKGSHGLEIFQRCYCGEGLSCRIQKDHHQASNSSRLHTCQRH

CGTACGGTCGACGCTAGCATAGGTTGGGTAGGTTGGTTGCTTTTTTTGTCGCGGGATCCGAGCTCCACGTG [Aptdkk-19]
functional effect of the aptamer [1]: active

CGTACGGTCGACGCTAGCTGGTGGTTGGGGTGGGTGGT [FAM-aptdkk5s]
binding result [2]: no binding
binding result [3]: binds
binding result [4]: no binding

CGTACGGTCGACGCTAGCTGGTGGTTGGGGAAAGTGGT [Aptdkk5s-11]
binding result [5]: binds more weakly

CGTACGAAAGACGCTAGCTGGTGGTTGGGGTGGGTGGT [Aptdkk5s-3]
binding result [5]: binds more weakly

CGTACGGTCGACGCTAGCTGGTGGAAAGGGTGGGTGGT [Aptdkk5s-9]
binding result [5]: binds more weakly
